ChEMBL document CHEMBL2074485, “Identification of thyroid hormone transporters in humans: different molecules are involved in a tissue-specific manner” (Endocrinology, 2001)

Molecular target: T1, Solute carrier organic anion transporter family member 1A4 (Rattus norvegicus, UniProt O35913)
T1 sequence (O35913 whole entry): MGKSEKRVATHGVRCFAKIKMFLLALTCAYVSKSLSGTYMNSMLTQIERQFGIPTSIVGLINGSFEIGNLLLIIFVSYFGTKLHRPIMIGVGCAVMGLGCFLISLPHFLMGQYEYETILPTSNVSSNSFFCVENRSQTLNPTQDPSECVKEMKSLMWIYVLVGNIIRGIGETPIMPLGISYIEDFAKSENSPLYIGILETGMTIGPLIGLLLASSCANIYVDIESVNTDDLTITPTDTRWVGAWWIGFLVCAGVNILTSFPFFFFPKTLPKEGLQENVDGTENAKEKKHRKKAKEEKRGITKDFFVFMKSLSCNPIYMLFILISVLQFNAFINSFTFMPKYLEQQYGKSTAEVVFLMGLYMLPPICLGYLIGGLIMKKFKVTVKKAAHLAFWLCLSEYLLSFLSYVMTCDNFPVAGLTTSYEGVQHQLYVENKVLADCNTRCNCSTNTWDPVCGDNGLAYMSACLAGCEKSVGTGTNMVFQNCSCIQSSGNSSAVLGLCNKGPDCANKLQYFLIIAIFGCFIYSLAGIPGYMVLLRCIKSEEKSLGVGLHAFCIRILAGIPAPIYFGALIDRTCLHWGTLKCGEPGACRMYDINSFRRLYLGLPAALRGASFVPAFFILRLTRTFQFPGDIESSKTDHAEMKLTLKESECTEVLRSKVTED
Experiment: TP_TRANSPORTER: inhibition of Digoxin uptake in Xenopus laevis oocytes

With `CCCCc1oc2ccccc2c1C(=O)c1cc(I)c(OCCN(CC)CC)c(I)c1` [AMIODARONE] the Ki was 1800 nM.
